Experimental findings from patent publication US6395275 are described below.

Substitutions are numbered along the chain they refer to. Results are given in words; binding and its absence hold for the method and conditions named. Some results given as binding are weak or reduced against the parent protein; the word gives no strength.

In experiment [1] the target is recombinant gp120 of HIV-1 strain IIIb (HIV-1 strain IIIb) (UniProt P04578). Nature of the experiment: phage panning on gp120, competition with soluble Fab 3b3 then acid elution.
Experiment [2] has the same target. Put plainly: phage panning on gp120.

B1: Fab QA12 (Fab, V domains shown)
VH: LEQSGAEVKKPGASVKVSCQASGYRFSNFTVHWVRQAPGQRFEWMGWINPYNGNKEFSAKFQDRVTFTADTSANTAYMELRSLRSADTAVYYCARVGEWGWDDSPQDNYYMDVWGKGTTVIVSS
VL: ELTQSPGTLSLSPGERATFSCRSSHQLDGSRVAWYQHKPGQAPRLVIHGVSNRASGISDRFSGSGSGTDFTLTITRVEPEDFALYYCQTYGRGIYTFGQGTKLERKR
Turning to B1, the binding result in experiment [1] is recorded as “binds”.

B2: Fab B (Fab, V domains shown)
VH: B1 VH
VL: B1 VL with Q26T, L27V, D28Y, G29R, S30D, T89V, R92A, G93S, I94S
For B2, the binding entry in experiment [2] is “binds”.
